Library screen at single concentrations

Protein sequences, listed by entry. Tags and fused reporters are not part of them. Residues count along the entry.
UniProt I6X8D2, whole entry: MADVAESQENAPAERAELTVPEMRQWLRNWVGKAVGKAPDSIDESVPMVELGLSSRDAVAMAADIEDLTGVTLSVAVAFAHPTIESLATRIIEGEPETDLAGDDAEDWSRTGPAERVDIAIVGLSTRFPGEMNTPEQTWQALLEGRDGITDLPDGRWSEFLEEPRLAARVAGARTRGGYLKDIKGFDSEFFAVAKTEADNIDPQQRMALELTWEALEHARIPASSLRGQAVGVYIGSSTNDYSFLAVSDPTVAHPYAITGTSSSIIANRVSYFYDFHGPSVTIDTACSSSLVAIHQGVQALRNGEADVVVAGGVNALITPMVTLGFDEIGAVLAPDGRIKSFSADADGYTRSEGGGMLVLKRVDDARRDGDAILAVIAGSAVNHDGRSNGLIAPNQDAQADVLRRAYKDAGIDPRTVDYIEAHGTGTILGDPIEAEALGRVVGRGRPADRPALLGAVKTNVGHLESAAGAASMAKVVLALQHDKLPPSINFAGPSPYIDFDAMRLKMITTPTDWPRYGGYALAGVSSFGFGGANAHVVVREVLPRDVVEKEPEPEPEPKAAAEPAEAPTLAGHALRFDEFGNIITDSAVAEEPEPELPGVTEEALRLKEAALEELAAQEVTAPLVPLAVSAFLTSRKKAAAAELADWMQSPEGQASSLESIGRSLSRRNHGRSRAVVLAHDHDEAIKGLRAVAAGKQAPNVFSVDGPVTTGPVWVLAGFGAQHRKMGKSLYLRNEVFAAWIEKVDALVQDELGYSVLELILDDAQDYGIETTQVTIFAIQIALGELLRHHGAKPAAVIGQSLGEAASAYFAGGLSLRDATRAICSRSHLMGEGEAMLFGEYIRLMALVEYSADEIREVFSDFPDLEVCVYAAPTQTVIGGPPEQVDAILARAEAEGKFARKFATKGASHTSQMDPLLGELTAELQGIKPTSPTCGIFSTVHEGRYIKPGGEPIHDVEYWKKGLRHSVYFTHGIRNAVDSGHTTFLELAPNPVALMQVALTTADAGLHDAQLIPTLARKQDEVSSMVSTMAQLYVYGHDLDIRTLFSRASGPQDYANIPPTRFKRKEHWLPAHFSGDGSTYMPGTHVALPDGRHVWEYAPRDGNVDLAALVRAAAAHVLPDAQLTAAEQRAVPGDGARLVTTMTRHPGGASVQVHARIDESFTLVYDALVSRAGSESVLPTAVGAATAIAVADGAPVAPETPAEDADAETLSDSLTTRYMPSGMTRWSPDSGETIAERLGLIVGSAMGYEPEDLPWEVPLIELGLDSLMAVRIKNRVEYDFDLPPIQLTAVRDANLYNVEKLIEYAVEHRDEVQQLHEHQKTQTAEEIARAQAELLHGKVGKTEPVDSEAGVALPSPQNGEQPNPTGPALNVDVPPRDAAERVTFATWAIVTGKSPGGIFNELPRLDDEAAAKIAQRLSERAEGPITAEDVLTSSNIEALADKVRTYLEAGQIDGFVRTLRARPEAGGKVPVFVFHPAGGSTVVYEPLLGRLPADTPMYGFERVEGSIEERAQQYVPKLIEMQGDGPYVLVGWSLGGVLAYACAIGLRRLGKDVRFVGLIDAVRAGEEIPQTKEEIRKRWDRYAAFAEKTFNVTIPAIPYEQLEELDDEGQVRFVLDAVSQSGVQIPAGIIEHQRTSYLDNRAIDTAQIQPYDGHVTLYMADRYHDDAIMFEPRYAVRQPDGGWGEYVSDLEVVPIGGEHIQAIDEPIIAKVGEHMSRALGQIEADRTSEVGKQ
UniProt Q4DA54, 1-478: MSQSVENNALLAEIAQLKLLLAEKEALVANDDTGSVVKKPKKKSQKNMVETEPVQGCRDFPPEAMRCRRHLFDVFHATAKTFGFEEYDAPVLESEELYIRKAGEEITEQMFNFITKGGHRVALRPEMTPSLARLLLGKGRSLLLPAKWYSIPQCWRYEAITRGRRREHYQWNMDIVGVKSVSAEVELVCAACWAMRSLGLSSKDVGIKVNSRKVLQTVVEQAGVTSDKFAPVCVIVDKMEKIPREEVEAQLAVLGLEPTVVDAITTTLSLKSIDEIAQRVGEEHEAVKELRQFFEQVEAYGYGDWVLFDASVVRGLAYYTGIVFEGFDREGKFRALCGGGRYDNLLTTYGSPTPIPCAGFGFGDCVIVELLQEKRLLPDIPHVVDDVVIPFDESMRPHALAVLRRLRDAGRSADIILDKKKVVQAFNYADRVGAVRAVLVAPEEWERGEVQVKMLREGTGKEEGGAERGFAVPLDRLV
UniProt P9WPC5, whole entry: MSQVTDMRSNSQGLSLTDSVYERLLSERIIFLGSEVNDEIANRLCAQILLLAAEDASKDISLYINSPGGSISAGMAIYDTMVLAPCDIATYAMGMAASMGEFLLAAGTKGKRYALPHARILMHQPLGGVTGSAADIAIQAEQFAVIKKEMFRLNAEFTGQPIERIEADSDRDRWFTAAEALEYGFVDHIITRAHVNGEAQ
UniProt P9WPC3, whole entry partner: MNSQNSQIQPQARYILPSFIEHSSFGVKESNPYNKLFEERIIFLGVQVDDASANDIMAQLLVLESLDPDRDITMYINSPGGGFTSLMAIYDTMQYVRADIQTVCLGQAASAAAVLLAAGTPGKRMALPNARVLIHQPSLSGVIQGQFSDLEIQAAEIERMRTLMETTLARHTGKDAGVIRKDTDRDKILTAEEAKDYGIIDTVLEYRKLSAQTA
UniProt A4I591, 1-473: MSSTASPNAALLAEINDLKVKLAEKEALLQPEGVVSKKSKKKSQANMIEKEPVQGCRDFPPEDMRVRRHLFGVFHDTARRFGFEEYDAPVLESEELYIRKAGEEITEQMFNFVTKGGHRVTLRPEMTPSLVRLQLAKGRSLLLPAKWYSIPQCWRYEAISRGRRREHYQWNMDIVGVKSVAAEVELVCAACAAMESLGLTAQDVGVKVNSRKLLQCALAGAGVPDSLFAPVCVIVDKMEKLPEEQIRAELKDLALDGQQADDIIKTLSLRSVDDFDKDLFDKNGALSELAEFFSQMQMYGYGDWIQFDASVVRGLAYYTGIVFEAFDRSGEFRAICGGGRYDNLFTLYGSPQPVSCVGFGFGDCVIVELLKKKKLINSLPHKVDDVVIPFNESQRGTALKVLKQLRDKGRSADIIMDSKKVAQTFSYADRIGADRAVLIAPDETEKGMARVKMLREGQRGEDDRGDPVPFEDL

Data taken from ChEMBL document CHEMBL3988442, “University of Dundee, Small-Polar-MMV Screening Library” (2021).

Pks13 thioesterase: 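Enzyme assay of the thioesterase domain of polyketide synthase 13; the read-out is not stated. Target: Polyketide synthase Pks13, Mycobacterium tuberculosis (UniProt I6X8D2). Concentration: 30 µM. Higher reads as stronger inhibition (inferred from which compounds were picked for retests). Size under these conditions: about 67,000 compounds, about 300 of them at 50% or above in at least one test.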
TcHisRS: 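Enzyme assay of histidyl-tRNA synthetase; the read-out is not stated. Target: Histidine-tRNA ligase, Trypanosoma cruzi CL Brener (UniProt Q4DA54). Concentration: 30 µM. Direction is inferred from retests: higher values go with stronger inhibition. Size under these conditions: about 69,000 compounds, about 31 of them at 50% or above in at least one test.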
ClpP1P2: 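Protease assay of ClpP1P2, read by the AMC dye that it sets free. Target: ClpP1P2, Mycobacterium tuberculosis (UniProt P9WPC5 and UniProt P9WPC3). Tested at 50 µM. Direction is inferred from only a few compounds that gave an IC50; most scored high, so higher reads as stronger inhibition. Most other retested compounds had strongly negative values. Of about 69,000 compounds tested this way, about 10 (0.015%) reached 50% or more in at least one test.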
Leishmania in macrophages: 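Cell assay of Leishmania donovani living inside macrophages; the read-out is not stated. Compounds at 30 µM. The record gives no direction; compounds that gave an IC50 in retests scored well above the rest, so higher reads as stronger inhibition. Size under these conditions: about 69,000 compounds, about 1,000 of them at 50% or above in at least one test.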
LiHisRS: 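Enzyme assay of histidyl-tRNA synthetase; the read-out is not stated. Target: Histidine-tRNA ligase, Leishmania infantum (UniProt A4I591). Compounds at 30 µM. The record gives no direction; compounds that gave an IC50 in retests scored well above the rest, so higher reads as stronger inhibition. The assay is labelled LdHisRS but filed under L. infantum. Of about 69,000 compounds tested this way, about 410 (0.6%) reached 50% or more in at least one test.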

Values are the deposited “Percent Effect”, in %. How 0% and 100% were set is not recorded. Most values in the screen are low, and negative values occur. The compounds are a random part of those screened. A dash means the value is not listed here; it may have been measured.

| # | structure | Pks13 thioesterase | TcHisRS | ClpP1P2 | Leishmania in macrophages | LiHisRS |
|---|---|---|---|---|---|---|
| 1 | `CCn1cc(S(=O)(=O)NCc2ccnc(-n3ccnc3)c2)cn1` | -32.04 | 9.392 | 0.353 | 11.23 | 7.254 |
| 2 | `CC(CN1CCCC1=O)NC(=O)NCc1ccccc1-n1cccn1` (stereo not drawn) | -9.1 | 3.125 | -17.68 | -1.549 | 0 |
| 3 | `CCC(=O)N1C[C@@H]2CCN(c3cnccn3)C[C@@H]2C1` | - | 3.365 | 27.87 | - | 19.27 |
| 4 | `CCC(=O)Nc1cc(Cl)ccc1C(=O)N(C)Cc1noc(CC)n1` | -11.28 | 3.797 | -12 | 9.877 | 10.42 |
| 5 | `COCC(=O)N1CC[C@@H]2CN(Cc3ccccc3)S(=O)(=O)[C@@H]2CC1` | 12.56 | 6.863 | 1.366 | - | 11.43 |
| 6 | `Cc1ccc(CN2Cc3nnn(C)c3C(COCc3ccccc3)C2)s1.O=C(O)C(F)(F)F` (stereo not drawn) | - | - | - | 38.88 | - |
| 7 | `Cc1nc(O)cc(CCNC(=O)CC[C@@H]2CCCN3CCCC[C@H]23)n1` | -20.17 | 2.618 | 1.453 | - | 5.376 |
| 8 | `Cc1ccccc1-n1cc(-c2ccnc(N[C@H](CO)C(C)C)n2)cn1` | -32.88 | 3.896 | 0.6006 | -6.664 | 6.667 |
| 9 | `O=C(C[C@@H]1COC[C@H]2CN(C3CCCC3)C[C@@H]12)NCc1cccnc1` | -6.238 | -1.676 | 8.123 | - | 9.615 |
| 10 | `CC(=O)N1[C@H](CN(C)C)C[C@@H]2CN(C(=O)c3cccn3C)CC[C@@H]21` | -29.11 | 7.767 | -4.322 | - | 13.46 |
| 11 | `CCNc1ncc(CN2C[C@@H](C(=O)O)[C@H](C3CC3)C2)cn1` | -5.935 | -2.793 | -7.784 | 10.13 | 0 |
| 12 | `CCn1cnnc1CNC(=O)N1CCC(C)CC1` | -21.29 | -2.817 | 14.94 | -1.764 | 4.348 |
| 13 | `[H][C@@]12CCN(C(=O)N(C)C)[C@]1([H])CC[C@H](C(=O)N(C)C)O2` | - | - | - | -8.269 | - |
| 14 | `CN1CCCn2c(nc(CNS(=O)(=O)C3CC3)cc2=O)C1.O=C(O)C(F)(F)F` | - | - | - | 3.79 | - |
| 15 | `Cc1c(CN2CCCC2c2cncc(CN3CCCC3)n2)cnn1C` (stereo not drawn) | -8.754 | 8.857 | -12.29 | 47.97 | 14.77 |
| 16 | `[H][C@@]12CS(=O)(=O)C[C@]1([H])N(C(=O)Nc1ccccc1Cl)CCN2CC1CC1` | - | - | - | -6.903 | - |
| 17 | `CC(C)NC(=O)NC[C@H]1C[C@@H]2CCN1C[C@@H]2CN(C)c1ccccc1` | -28.28 | 8.696 | -4.892 | - | 20.27 |
| 18 | `CCC(C)C(=O)N(Cc1ccccn1)C1CC1` (stereo not drawn) | -8.614 | 10.3 | -5.279 | -7.966 | 13.33 |
| 19 | `COC[C@@]12CC[C@@H](N3CCOCC3)C[C@H]1CCN(c1cc(C)ccn1)C2` | 0.7528 | 0 | 0.6254 | - | 19.44 |
| 20 | `CCn1cc(-c2cc(C(F)F)n3nc(CCC(=O)O)nc3n2)cn1` | 32.31 | -30.06 | -4.437 | 16.21 | 18.56 |
| 21 | `CCN(CC)S(=O)(=O)c1ccc(CNc2cc(C)nc(C)n2)cc1` | -10.5 | 1.026 | -12.23 | 6.065 | 4.082 |
| 22 | `[H][C@@]12CS(=O)(=O)C[C@]1([H])N(Cc1nc(C)n[nH]1)CCN2C(=O)C1CCC1` | - | - | - | 20.07 | - |
| 23 | `Cc1occc1C(=O)N1CCCN(Cc2ncc(Cl)n2C)CC1` | -31.47 | 7.843 | 1.617 | 11.1 | 13.33 |
| 24 | `COc1ccc(CN2C[C@@H]3CC[C@H](C2)N(S(=O)(=O)C2CC2)C3)cc1` | -15.61 | 0.8696 | -7.295 | - | 13.33 |
| 25 | `Cc1noc(C)c1NC(=O)NC1CCN(C(=O)OC(C)(C)C)CC1` | -1.543 | 2.941 | -5.505 | 0.8016 | 8.333 |
| 26 | `CCc1nc(C(=O)N2CCCCC2)nn1-c1ccccc1Cl` | -8.693 | 4.624 | -11.81 | 29.42 | 11.4 |
| 27 | `C[C@@H]1CN(C(=O)c2ccc[nH]2)C[C@]12CCN(CCN1CCCC1)C2=O` | -1.177 | 6.667 | 1.656 | - | -166 |
| 28 | `[H][C@@]12CNCC[C@]1(O)CCN(c1nccnc1N(C)C)C2` | - | - | - | 2.654 | - |
| 29 | `O=C(CCn1cncn1)NCC1CCS(=O)(=O)C1` (stereo not drawn) | -35.79 | -1.149 | 5.465 | 15.86 | 20.51 |
| 30 | `CC(C)(C)c1nc(CN2CCOC(Cn3cncn3)C2)cs1` (stereo not drawn) | -9.078 | 6.936 | -26.52 | -3.259 | 2.679 |
| 31 | `Cc1nc([C@@H]2C[C@H]3CN(Cc4ccc5c(c4)OCO5)C[C@H]3O2)no1` | -9.396 | 6.186 | 2.309 | - | 20 |
| 32 | `CC(C)N(CCNCc1ccc(C#N)cc1)C1CC1` | -14.95 | 6.061 | 2.028 | -9.131 | 3.175 |
| 33 | `CC(C)N(C)[C@@H]1CCN(C(=O)c2ccc[nH]2)[C@H]1Cc1cnn(C)c1` | -0.6134 | -1.02 | -3.443 | 40.22 | 5 |
| 34 | `CCN(C)Cc1n[nH]c(=O)n1-c1cc(F)ccc1C` | -20.65 | 8.458 | -10.05 | 18.01 | 9.79 |
| 35 | `CC(=O)N1CCc2ncn(C)c2C1C(=O)N1CCCC1.O=C(O)C(F)(F)F` (stereo not drawn) | - | - | - | 11.22 | - |
| 36 | `[H][C@@]12CCN(S(=O)(=O)c3cccs3)[C@]1([H])CCC(=O)N2CC` | - | - | - | 2.269 | - |
| 37 | `COc1ccc(-c2cnc3c(c2)CN(C2CC2)C(=O)CCN3)cc1` | 13.34 | 4.494 | 0.9651 | -13.1 | 20.41 |
| 38 | `CCc1cnc(CN(C)C2CCN(CC3CCOCC3)C2)o1` (stereo not drawn) | -1.278 | 2.632 | 4.364 | 46.35 | 15.93 |
| 39 | `CC(C)n1ccnc1C1CCCN(Cc2ccc(F)c(F)c2)C1` (stereo not drawn) | 8.673 | 4.933 | 3.968 | 4.352 | 17.65 |

2 of the entries, repeated:

structure,Pks13 thioesterase,TcHisRS,ClpP1P2,Leishmania in macrophages,LiHisRS
CCc1nc(C(=O)N2CCCCC2)nn1-c1ccccc1Cl,-8.693,4.624,-11.81,29.42,11.4
CC(CN1CCCC1=O)NC(=O)NCc1ccccc1-n1cccn1 (stereo not drawn),-9.1,3.125,-17.68,-1.549,0